# Reference: paper PMC12040169 (PLOS Biology, 2025)
# The other results are listed elsewhere or left out.
# Test system: T1, CTL2-GFP (C. trachomatis L2/434/Bu, GFP-expressing)
# T1 construct: L2/434/Bu, GFP-expressing
# Parameters: species or system HeLa; Intracellular C. trachomatis growth in HeLa cells, bulk GFP fluorescence relative to DMSO
# Conditions: bulk GFP, single well; 28.5 h, 10 µM; inhibitor
row,SMILES,% of control remaining [%]
1,O=C(O)[C@H]1CN(C(=O)c2ccco2)C[C@@H]1c1ccc(F)cc1 [CBK283735],105.83
2,COC(=O)CCn1c(=O)c2c(nc3oc(C)c(C)n32)n(C)c1=O [CBK306033],120.549
3,Cn1nc(C(=O)NCC(c2ccccc2Cl)N2CCOCC2)ccc1=O (stereo not drawn) [CBK305886],111.051
4,CC(=O)Oc1ccc(NC(=O)C2CC(Cl)=CCC2C(=O)O)cc1C(=O)O (stereo not drawn) [CBK265372],98.3377
5,CCCNC(=O)C1(Cc2ccccc2-c2cccs2)CCN(C(=O)c2ccccc2)CC1 [CBK285694],121.945
6,Cc1ccc(S(=O)(=O)NCCSCc2ccc(Cl)c(Cl)c2)cc1[N+](=O)[O-] [CBK264675],102.702
7,Cc1[nH]c(=O)c(C(=O)N(C)C(C)c2ccc(Cl)cc2)cc1-c1ccc(O)cc1 (stereo not drawn) [CBK291225],128.127
8,OCCSc1ccc(C(F)(F)F)cn1 [CBK028739],96.7653
9,O=C(COc1ccc2ccccc2c1Br)NCCN1CCOCC1 [CBK267391],171.74
10,Oc1c(-c2ccc(Cl)cc2)c2nc3ccccc3nc2c2ccccc12 [CBK261628],100
11,CC(=O)NC1CCN(CC2(c3ccccc3F)CCCC2)CC1 [CBK282591],127.958
12,COc1ccc(NC(=O)CCN2C(=O)c3ccccc3S2(=O)=O)cc1 [CBK265863],102.854
13,CCC(C)C(=O)N1CCC(c2nnc3n2CCCCC3)CC1 (stereo not drawn) [CBK282260],136.133
14,COc1ccccc1CCCN1CCC2(C1)c1[nH]c3ccccc3c1CCN2S(C)(=O)=O (stereo not drawn) [CBK074095],74.9629
15,Cc1cc(C[C@@H]2COC[C@H]2NCc2cccs2)on1 [CBK282999],121.314
16,Cc1ccc(S(=O)(=O)NC(CC(=O)O)c2ccccc2)cc1 (stereo not drawn) [CBK261307],107.308
17,CCc1ccc(CNC(=O)Cn2nnc(-c3ccc(CN4CCC(C)CC4)nc3SC)n2)cc1 [CBK156205T],110.048
18,O=C(Nc1ccc(=O)n2c1[C@@H]1C[C@@H](CN(C(=O)Nc3ccc(F)cc3)C1)C2)c1ccccc1 [CBK288715],120.542
19,Cc1c(NC(=O)C2CCN(c3ccccc3Cl)C2)nnn1C (stereo not drawn) [CBK306263],151.66
20,Cc1cccc(C)c1NC(=O)C(C#N)C(=O)c1nn(-c2ccccc2)c2c1CSc1ccccc1-2 (stereo not drawn) [CBK017678],100
21,CC(CCc1ccccc1)NC(=O)CN1CCOCC1 (stereo not drawn) [CBK268994],140.964
22,O=C(COc1ccc(S(=O)(=O)Nc2ccc(Cl)cc2)cc1)Nc1ccccc1F [CBK268427],115.766
23,CCCC(=O)N1CCC([C@@H]2C[C@H](C(F)F)n3nc(C)cc3N2)CC1 [CBK284724],103.524
24,CC(C)n1c(=O)n(CCN2CCCC2)c2cccnc21 [CBK283532],128.036
25,COc1cc(-c2nccnc2NCc2ccco2)cc(OC)c1OC [CBK037072],114.045
26,O=S(=O)(Nc1nnc(C(F)(F)F)s1)c1ccc(Oc2ccccc2)cc1 [CBK062007],116.443

row,SMILES,% of control remaining [%]
1,O=C(O)c1[nH]c2ccccc2c1C(c1cc(Cl)cc([N+](=O)[O-])c1O)c1c(C(=O)O)[nH]c2ccccc12 [CBK267814],93.3374
2,CC(=O)c1ccc(NS(=O)(=O)c2cc(C(=O)Nc3ccccc3C(=O)O)ccc2Br)cc1 [CBK263203],110.187
3,O=C(CSc1nnc(-c2ccc(Cl)cc2)n1-c1ccccc1)N/N=C/c1ccco1 [CBK262996],106.326
4,O=C(O)c1cc(S(=O)(=O)Nc2ccc(O)cc2)c(Cl)cc1Cl [CBK113231],109.036
5,Cc1ccccc1C(=O)Nc1cccc(NC(=O)c2ccc(-c3cc4ccccc4oc3=O)cc2)c1 [CBK267256],108.903
6,Cc1cc2nc3s/c(=C\c4ccc(-c5ccc(O)c(C(=O)O)c5)o4)c(=O)n3c2cc1C [CBK262538],117.265
7,Cc1c(C(=O)C2=C(O)C(=O)N(CCN3CCOCC3)C2c2ccccn2)cnn1-c1ccccc1 (stereo not drawn) [CBK266493],94.9625
8,CCN1CCC[C@@H]1CNC(=O)c1ccncc1 [CBK174659],110.901
9,Cn1c(=O)c2c(O)cc(=O)oc2c2ccccc21 [CBK003546],118.981
10,O=S(=O)(NCc1cccc(F)c1)c1ccc(OC(F)(F)F)cc1 [CBK043379],151.982
11,CCCCCOc1ccc(Nc2ccc(-c3cccnc3)cn2)cc1 [CBK036948],135.103
12,CN(C)c1ccc(Nc2nc(NCCO)c3ccccc3n2)cc1 [CBK268392C],10.622
13,O=S(=O)(c1cccs1)N1CCCN(Cc2nccs2)CC1 [CBK045172],85.9434
14,CS(=O)(=O)c1cccc(-c2nnc(NC(=O)c3ccccc3)o2)c1 [CBK287726],141.256
15,Cc1cccc(CCNC(=O)c2cccn(CC(=O)N(C)C3CCCCC3)c2=O)c1 [CBK286113],96.9089
16,CCn1nc(C(C)C)cc1C(=O)N1CC2(CCNCC2)CC1C(=O)O (stereo not drawn) [CBK307179],148.452
17,Cc1ccc(OCCSc2nnc3[nH]c4ccccc4n23)cc1 [CBK267922],117.176
18,Cc1ccc(C(C)CCN2CC3CCCN3C[C@H]2C)o1 (stereo partly drawn) [CBK285467],125.994
19,CCCOc1ccc(-c2cc(C(=O)NO)n[nH]2)cc1C [CBK288362],120.919
20,Nc1ncc(-c2ccc(-c3ccccc3F)cc2)c2cccnc12 [CBK067597],135.916
21,C=CCOC(=O)N1CCC(C(=O)NC(c2ccccn2)c2ccccc2C)CC1 (stereo not drawn) [CBK059689],99.3867
22,COc1ccccc1-c1cccc(CC2(C(=O)NCCc3ccccc3)CCOCC2)c1 [CBK285593],115.306
23,COc1ccc(/C=C2\S/C(=N/N=C/c3ccc(OC)cc3)N(c3ccc(O)cc3)C2=O)cc1 [CBK262780],131.264
24,CCCCc1ccc(C(N)=O)nc1C(N)=O [CBK005061],124.519
25,O=C(NCCc1ccc(S(=O)(=O)NC(=O)NC2CCCCC2)cc1)NC1CCCCC1 [CBK011926],143.124
26,CC(C)Nc1nccnc1Sc1ccc(N)cc1 [CBK089485],129.393

row,SMILES,% of control remaining [%]
1,COc1cccc(CC(=O)N2C3CCC2CC(O)(c2ccco2)C3)c1 (stereo not drawn) [CBK284053],136.987
2,CN1CCCN(c2ccc(NS(=O)(=O)c3cccc(F)c3)c3ccccc23)CC1 [CBK200010C],19.7179
3,Cc1nn(-c2cccc(C(=O)NC3CCCOC3)c2)c(C)c1Cl (stereo not drawn) [CBK282512],114.277
4,Cc1nc(C)c(C(=O)NCCN2CCCCC2C)s1 (stereo not drawn) [CBK282200],121.991
5,Cc1ccccc1N1CCN(C(=O)c2nn[nH]c2Nc2ccccc2F)CC1 [CBK288032],113.963
6,CS(=O)(=O)c1ccc2nc(NC(=O)c3ccco3)sc2c1 [CBK287341],139.555
7,CCCOC1CCCN(Cc2cn(CC(N)=O)c3ccccc23)C1 (stereo not drawn) [CBK282796],125.57
8,OCCN1CCN(c2nc(-c3cc(Cl)cc(Cl)c3)cn3ccnc23)CC1 [CBK066558],122.303
9,Cc1nn2cc(-c3n[nH]cc3[N+](=O)[O-])cnc2c1C(N)=O [CBK268957],139.963
10,Cc1cccc(-c2ocnc2C(=O)NC(C)c2ccccn2)c1 (stereo not drawn) [CBK282427],101.298
11,Cc1noc(C)c1COc1ccc(C(=O)N[C@@H]2CN(C(=O)NC(C)C)CCC[C@H]2O)cc1 [CBK289069],110.637
12,CCc1noc(C)c1C(=O)Nc1cccc(Cn2cc(Cl)cn2)c1 [CBK268127],133.721
13,Cc1cc(Cl)ccc1OC(C)C(=O)NCc1ccccn1 (stereo not drawn) [CBK265441],100
14,Cc1ccc(CS(=O)(=O)N(CC(C)C)C2CC2)c(F)c1 [CBK306460],92.0653
15,O=C(NCc1ccc([N+](=O)[O-])cc1)c1cccnc1NCc1ccc2c(c1)OCO2 [CBK153436],15.7061
16,Nc1ncc(-c2ccc(O)cc2)nc1N1CCN(CCO)CC1 [CBK063685],93.1401
17,O=C(Nc1cccc(C(F)(F)F)c1)c1ccc(N2CCNCC2)c([N+](=O)[O-])c1 [CBK266274],89.7222
18,O=C(Nc1ccc2c(c1)OCO2)N1CCN(c2ccc(F)cc2)CC1 [CBK270332],113.364
19,O=C(NC1CCCC1)c1ncoc1-c1ccccc1 [CBK281937],131.563
20,CCn1c(=O)n(CC(=O)N2CCCC3CCCCC32)c2cccnc21 (stereo not drawn) [CBK283893],121.409
21,CN(C)S(=O)(=O)c1cc(C(=O)Nc2ccc(C(=O)O)cc2)c(Cl)cc1Cl [CBK266783],107.831
22,Cn1ccnc1C1(O)CC2CCC(C1)N2C(=O)NC1CCCCC1 (stereo not drawn) [CBK284049],148.098
23,O=C(CSC1c2ccccc2Sc2ccccc21)Nc1ccc(C(=O)O)cc1 [CBK267542],89.8205
24,OC(Cn1c(Cc2ccccc2)nc2ccccc21)Cn1c2ccc(Cl)cc2c2cc(Cl)ccc21 (stereo not drawn) [CBK262546],100
25,CCOC(=O)c1ccsc1NC(=O)C1CC=CCC1C(=O)O (stereo not drawn) [CBK270291],147.599
26,COc1cc(-c2nccnc2N(C)Cc2ccccc2)cc(OC)c1OC [CBK037424],178.293

# 4 of the compounds above, with bars between the fields:
row | SMILES | % of control remaining [%]
6 | CS(=O)(=O)c1ccc2nc(NC(=O)c3ccco3)sc2c1 [CBK287341] | 139.555
12 | CCc1noc(C)c1C(=O)Nc1cccc(Cn2cc(Cl)cn2)c1 [CBK268127] | 133.721
19 | O=C(NC1CCCC1)c1ncoc1-c1ccccc1 [CBK281937] | 131.563
22 | Cn1ccnc1C1(O)CC2CCC(C1)N2C(=O)NC1CCCCC1 (stereo not drawn) [CBK284049] | 148.098
